# Results from paper PMC2980493.
# Protein sequences, listed by entry. Tags and fused reporters are not part of them. Lines headed by an entry give the natural chain unless they say otherwise; changes in a name come on top.
# UniProt P48432: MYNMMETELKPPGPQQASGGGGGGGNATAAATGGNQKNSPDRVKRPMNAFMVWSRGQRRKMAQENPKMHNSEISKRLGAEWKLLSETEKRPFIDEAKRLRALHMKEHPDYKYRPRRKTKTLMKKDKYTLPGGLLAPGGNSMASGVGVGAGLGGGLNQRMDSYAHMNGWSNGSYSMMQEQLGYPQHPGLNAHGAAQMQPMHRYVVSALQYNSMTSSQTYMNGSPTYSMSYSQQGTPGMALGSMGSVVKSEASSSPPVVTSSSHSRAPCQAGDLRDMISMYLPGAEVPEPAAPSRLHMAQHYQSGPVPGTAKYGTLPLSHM
# UniProt O09106: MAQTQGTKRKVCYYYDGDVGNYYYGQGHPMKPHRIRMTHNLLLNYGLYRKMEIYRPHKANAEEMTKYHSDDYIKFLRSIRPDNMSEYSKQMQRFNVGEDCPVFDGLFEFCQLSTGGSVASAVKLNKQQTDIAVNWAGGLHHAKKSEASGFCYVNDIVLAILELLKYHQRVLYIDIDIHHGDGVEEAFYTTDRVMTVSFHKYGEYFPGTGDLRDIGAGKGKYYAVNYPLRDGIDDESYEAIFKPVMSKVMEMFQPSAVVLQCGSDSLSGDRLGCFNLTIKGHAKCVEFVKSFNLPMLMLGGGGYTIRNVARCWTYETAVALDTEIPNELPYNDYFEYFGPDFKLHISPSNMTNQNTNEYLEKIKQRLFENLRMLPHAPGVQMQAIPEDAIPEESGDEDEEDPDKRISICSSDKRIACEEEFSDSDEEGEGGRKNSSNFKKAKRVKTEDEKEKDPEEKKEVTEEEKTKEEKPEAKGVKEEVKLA
# UniProt Q8BX22: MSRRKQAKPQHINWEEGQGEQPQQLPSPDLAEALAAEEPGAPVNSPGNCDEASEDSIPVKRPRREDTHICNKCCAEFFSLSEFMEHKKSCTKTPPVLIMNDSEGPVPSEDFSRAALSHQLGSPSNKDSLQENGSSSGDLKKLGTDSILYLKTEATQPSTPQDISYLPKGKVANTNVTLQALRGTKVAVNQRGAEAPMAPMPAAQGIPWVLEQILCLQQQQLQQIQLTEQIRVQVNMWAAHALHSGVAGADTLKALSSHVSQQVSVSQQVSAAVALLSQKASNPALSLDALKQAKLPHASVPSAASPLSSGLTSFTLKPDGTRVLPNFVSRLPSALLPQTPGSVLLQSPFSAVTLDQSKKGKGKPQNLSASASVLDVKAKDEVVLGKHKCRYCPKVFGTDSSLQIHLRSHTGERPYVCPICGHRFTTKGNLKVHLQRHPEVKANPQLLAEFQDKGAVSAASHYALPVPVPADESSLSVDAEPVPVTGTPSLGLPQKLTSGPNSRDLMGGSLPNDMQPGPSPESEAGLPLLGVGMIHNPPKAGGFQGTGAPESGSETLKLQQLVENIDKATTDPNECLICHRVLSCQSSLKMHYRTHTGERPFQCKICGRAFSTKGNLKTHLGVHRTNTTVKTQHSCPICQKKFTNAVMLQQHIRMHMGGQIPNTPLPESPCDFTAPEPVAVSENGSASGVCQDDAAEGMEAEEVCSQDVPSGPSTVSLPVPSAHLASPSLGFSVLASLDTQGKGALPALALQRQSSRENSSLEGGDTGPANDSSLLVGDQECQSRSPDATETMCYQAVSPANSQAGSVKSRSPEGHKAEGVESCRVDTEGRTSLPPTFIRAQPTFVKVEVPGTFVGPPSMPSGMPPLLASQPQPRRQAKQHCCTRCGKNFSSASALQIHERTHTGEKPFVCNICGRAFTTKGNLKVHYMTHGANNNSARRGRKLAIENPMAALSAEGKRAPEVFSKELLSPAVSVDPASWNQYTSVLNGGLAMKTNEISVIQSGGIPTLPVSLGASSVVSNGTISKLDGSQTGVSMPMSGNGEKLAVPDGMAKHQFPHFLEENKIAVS
# UniProt Q92769: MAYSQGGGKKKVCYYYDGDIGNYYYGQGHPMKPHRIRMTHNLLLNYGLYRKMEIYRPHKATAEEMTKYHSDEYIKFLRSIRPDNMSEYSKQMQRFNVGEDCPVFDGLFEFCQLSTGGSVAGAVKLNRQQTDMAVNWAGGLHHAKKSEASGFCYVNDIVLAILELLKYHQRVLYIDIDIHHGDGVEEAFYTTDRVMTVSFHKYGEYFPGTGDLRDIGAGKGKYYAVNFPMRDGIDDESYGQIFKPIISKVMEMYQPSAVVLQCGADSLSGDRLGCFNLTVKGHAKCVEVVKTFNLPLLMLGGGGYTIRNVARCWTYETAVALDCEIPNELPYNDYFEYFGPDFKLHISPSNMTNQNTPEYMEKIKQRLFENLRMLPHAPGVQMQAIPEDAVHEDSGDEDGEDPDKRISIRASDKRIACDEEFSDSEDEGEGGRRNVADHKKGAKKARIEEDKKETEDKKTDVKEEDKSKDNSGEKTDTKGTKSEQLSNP
# Assays:
# [1] = target: Flag-Sox2-ΔHMG (UniProt P48432); test: co-IP; 293T cells transiently transfected with both partners; nuclear extracts (NE-PER kit) 1 day later; Flag-Sox2 constructs precipitated on anti-Flag M2-beads; eluates probed by western blot
# [2] = target: Flag-Sox2-ΔHMG (UniProt P48432); test: co-IP; 293T cells transiently transfected with Flag-Sox2 constructs only; endogenous HDAC2; nuclear extracts, anti-Flag M2-beads, western blot
binding [1],binding [2],Substance
binds,,GFP-Sox2-ΔHMG (from UniProt P48432)
binds,,HDAC1 (from UniProt O09106 1-482) (enzyme)
binds,,Sall4 (from UniProt Q8BX22 1-1067)
,no binding,endogenous HDAC2 (from UniProt Q92769 1-488) (enzyme)

# Results are given in words; binding and its absence hold for the method and conditions named. Binding seen in cells or lysates may run through a third protein. For some of these results: Binding can be weak; no strength is given.
